Measurements as given in patent publication US8568973B2, “Cell-signaling assays” (Molecular Devices, LLC, priority 1999, dated 2013).
At least one structure is not confirmed: it was looked up by name or label, or the drawing left a doubt.

Tested on: T47D cells
Test: Whole-cell cAMP luminescence polarization assay of modulators (FIG. 13)
Format: cell-based
Conditions: cultured adherent T47D cells, whole cell preparation, forskolin protocol 20 μM final, 15 minutes at 37° C.
Description: • (a) Preparation of 1:75 cAMP antibody working stock. Dilute the 300× cAMP antibody stock 1:75 in cAMP assay buffer (0.05 M HEPES, pH 7.5, 150 mM NaCl, 0.1% bovine gamma globulin) (e.g., by adding 14 μL of the 300× cAMP antibody stock to 1036 μL of cAMP assay buffer). 10 μL of this working stock solution will be added to the assay plate, as indicated in the plate layout in FIG. 9. • (b) Preparation of cAMP tracer working stock. Dilute the 500× cAMP tracer stock 1:125 in cAMP assay buffer (e.g., by adding 10 μL of the 500× cAMP tracer stock to 1240 μL of cAMP assay buffer). 10 μL of this working stock solution will be added to the assay plate, as indicated in the plate layout in FIG. 9. • (c) Preparation of cAMP calibration curve. Dilute the cAMP calibrator 1:25 in cAMP assay buffer (e.g., by adding 10 μL cAMP calibrator to 240 μL cAMP assay buffer) to give 10 μM cAMP calibrator or 400 pmol in final assay. Prepare seven 1:3 serial dilutions to give 3.33, 1.11, 0.37, 0.12, 0.041, 0.014, and 0.005 μM cAMP (133 to 0.125 pmol in final assay). • (d) Preparation of samples. […] A plastic plate cover may be used to prevent possible evaporation, but care should be taken with plastic plate sealers, which may introduce undesirable background fluorescence. • (e) Read plate using a light detection device capable of generating and detecting polarized light. […]

## C=C[C@@]1(C)CC(=O)[C@]2(O)[C@@]3(C)[C@@H](O)CCC(C)(C)[C@@H]3[C@H](O)[C@H](OC(C)=O)[C@@]2(C)O1 [forskolin]
  cAMP production (cAMP levels): stimulated
Listed as Forskolin
  cAMP production (cAMP levels): expected rise in cAMP
